# Measured values from PubChem BioAssay AID1508600 (Functional Genomics Laboratory (NCATS/FGL), 2020).
# In all, about 53,000 sequences went through this assay and about 3,700 (7%) were called active.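 How the source made its calls: active means gene knockdowns whose robust z-score for IL-1 alpha signal is at least 2 or at most -2, so actives lie on both sides; inactive means the rest.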 The list shows a part of the results.
# Assay: Components of the Cytosolic LPS Sensing Pathway: Gene Identification via Genome-wide siRNA Screen;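 further: robust z of the log signal after scaling to non-targeting control siRNA wells of the plate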
# Settings: RAW264.7 macrophages, IL-1a HTRF, actives lie on both sides, screened at 100 nM (by protocol), cells primed 5 h with Pam3CSK4 first
# In short: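 Three distinct siRNAs per gene were tested singly at 100 nM in RAW264.7 macrophages. Following Pam3CSK4 priming and 24 hour LipidA transfection, IL-1a secretion was read by HTRF.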
row,Sequence,z-score
1,GGUACCAGGAUACGAAUAUTT against Pde10a,inactive: 0.817
2,GGCUCUUAUUGAUAAAAGCTT against 2310057M21Rik,inactive: -0.467
3,GGUGACUUGGAAGAGCCCATT against Il1rapl2,inactive: -0.637
4,CCUUCAUCGUACAUACCAUTT against Actn1,inactive: 1.02
5,GGAAGACAAAAUGUUCUAATT against Las1l,inactive: 1.37
6,GGUGAUGAGCAACUUGGACTT against S100a4,inactive: 1.23
7,GGACAACAGUGUAAAAAUCTT against Armc12,inactive: -0.318
8,UUCUAAUCACAAAGGUUGATT against Olfr1113,inactive: -0.368
9,GGUGAUUUCCAUCUACAACTT against Tgfb2,inactive: 0.757
10,GGGAAUAUUCAGUUGACAATT against Iigp1,inactive: -1.14
11,GGAAACACCAGGUUUAUAUTT against Ttc27,inactive: -1.74
12,GGUUUAACAAGGAAUUAGGTT against Gngt1,inactive: -0.832
13,GGAAUGGUACUAUCAAAUATT against Bace2,inactive: 1.91
14,GGCAUCAGAGCAUCUGUGCTT against Ankrd16,inactive: 0.488
15,GGAGUUAAAGAGCUUAGGCTT against Cstf2t,inactive: -0.237
16,CCUACUUCCCGUCAUUCCUTT against Tmem214,inactive: 0.367
17,CGUGAAAGGCACAAAAAAGTT against Gipc2,inactive: -0.341
18,GGGAUAUUGAGUUAGCCUGTT against Bet1,inactive: 0.437
19,GGUUAUUGAGGAGUUCUACTT against Slc2a1,inactive: 0.44
20,CGUGGCAAGAUGACUAUACTT against Ptprn2,inactive: -0.609
21,GCCUAUUGUCAGAAAAGUUTT against Usp4,inactive: -0.385
22,GGAUCUAUUCACUUCGGAUTT against Clec2d,inactive: 1.02

# No new results follow: an excerpt of the list.
row,Sequence,z-score
11,GGAAACACCAGGUUUAUAUTT against Ttc27,inactive: -1.74
12,GGUUUAACAAGGAAUUAGGTT against Gngt1,inactive: -0.832
13,GGAAUGGUACUAUCAAAUATT against Bace2,inactive: 1.91
14,GGCAUCAGAGCAUCUGUGCTT against Ankrd16,inactive: 0.488

# Additional entries.

row,Sequence,z-score
1,CCCACAGCUCUGACAUUUUTT against Fbxo6,inactive: -0.315
2,GCACGAGACACUUUUCAUUTT against Dnajb5,inactive: -0.0852
3,GGUUGUGUGUUAUUUAUAGTT against Irak2,inactive: -1.94
4,GCUUCGAGUCAUAGGUUUATT against Btnl1,inactive: 1.85
5,GGUGUGGUGUGAGAUCUAUTT against Adra2a,inactive: 1.08
6,GGGACAGUGUUUAUGACCCTT against Car5b,inactive: -1.1
7,GGGUCUUGAGAAUCUUAUGTT against Zfp454,inactive: -0.614
8,GGUCCAGAGGAUGAACAGATT against Crcp,inactive: 0.551
9,GGAUGAAGAAGAGAUCAACTT against Tubb6,inactive: 0.986
10,GGUGAAAGUACUGAGGAAGTT against Rlim,active: 2.45
11,GGAAGCUGAACGAAAAUAATT against Cript,inactive: 0.196
12,GCCUCUAUUCUACACCACATT against Gpr137,active: -2.1
13,GGGAAAUAAUGAUUGGUCUTT against Mier3,inactive: 0.605
14,GGACACAAUUAUGAGAACATT against Cwh43,inactive: 0.0205
15,GGAGAUCGAGUUCAACAUUTT against Olfr557,inactive: 1.77
16,GGUGAAUUCAACUCUCUAATT against Decr1,active: 2.43
17,GGUUUUUCUCACUUUUGUATT against Siah1a,inactive: 0.374
18,GGAGAAUUGCUUGAAUACUTT against Supt20,inactive: 0.419
19,GCACACGAUUCCUCAUGGATT against Pigw,inactive: -0.346
20,GCAACUCAAUCUGGUCACUTT against Psme1,inactive: -0.292
21,GGUGAUUCACAUAACAGGCTT against Npas3,active: 2.05
22,GGAGUUGUAAAGUUUGGCUTT against Slc12a2,inactive: -0.758

row,Sequence,z-score
1,GCCUACAUUCACUCACUCCTT against Olfr1061,inactive: -0.016
2,GGGAGUUCAACUUGAUGUATT against Irf6,inactive: -1.45
3,CCCACUGGUUUGUUUAAACTT against Hbegf,inactive: 0.555
4,GGUACACCACAAUCCUCACTT against Olfr676,inactive: -0.482
5,GCCAAGGUAGAAUCUUGCCTT against Gsdmd,inactive: -0.197
6,GCACGUUCUUUCAAGAAAGTT against Ubald2,inactive: -0.625
7,CCGAAAGAACACAAUCUAUTT against Ifi204,inactive: 1.16
8,GGAGCUUAGUCUAAUUGAATT against Ms4a6c,inactive: 0.677
9,GCUGGAUUACAUCACAUACTT against Sf3a3,inactive: -0.366
10,CGAGAGCAUUAAUUACUUCTT against Sulf1,inactive: 0.621
11,GGUGGCCUUUCCUCGAAGATT against Msi1,inactive: 0.854
12,GGUAACUGUGGACUUGCUUTT against Olfr1213,inactive: -1.64
13,GGUGGACUACUCACGAUUCTT against Kcnj4,inactive: 0.867
14,GGAGGAGCCUGUUCCAGAATT against Bcl7c,inactive: -0.0117
15,GGUCUCCUAUCAGAAAGCCTT against Tor1a,inactive: -1.37
16,GGAGAAUUGCCCAUCUUUGTT against Slf1,inactive: 1.24
17,GCCACGACCAUUCAGACUCTT against Lrrc42,inactive: 1.27
18,ACAAAUAUUCCCUGGCCACTT against Slc39a13,inactive: 0.45
19,UCCUCCUGUCUUACGUACGTT against Prlhr,active: 2.05
20,GCACAAAGACUUAAACAUCTT against Egfl6,inactive: -0.104
21,GGUAAUUGAGAAAUUUGAGTT against Mprip,inactive: -0.824
22,CCUGUAGGAUUGUUUUGAATT against Slc39a8,inactive: -0.478

row,Sequence,z-score
1,GGAGACAUUCACUGUCUUCTT against Ephb4,inactive: -0.322
2,GGAGACAAGCUUCUUUGAUTT against Abcb9,inactive: -1.65
3,GGAUGAAGAUGAAAAGGAATT against Ube3a,inactive: -0.519
4,GGCAAAAAGUAUGCCUUAGTT against Pi4k2b,inactive: 0.544
5,GGAGAAAGCUUGUGUGGUGTT against Prxl2b,inactive: -0.446
6,GGCUAAUGUAUCGUCUGAGTT against Asb16,active: 3.06
7,GCAUUUAACAAAGAUUUGGTT against Rnpc3,inactive: 0.248
8,GGCUUGUGACUACGAAAUATT against Olfr1364,inactive: -1.27
9,GGAAUUUGAUUCUCUGCCUTT against Zfp646,active: 2.96
10,CCGUGGAGUAACAAGUAUGTT against Capzb,inactive: -1.07
11,GGAAAAUCACAAUCACUUGTT against Ccdc43,inactive: -0.669
12,GGCUUUGUAGCCUAGCUAGTT against Cd81,inactive: 0.775
13,GGACAUGUACACCUUUGAUTT against Pars2,inactive: -0.289
14,GGUUACGGAUAUGGAUCUGTT against Krtap19-5,inactive: 0.488
15,GGAAAGAUGAGACCACCCGTT against Stau1,inactive: -0.582
16,GGGAGUGGCUGAAAAGUGUTT against Colgalt2,inactive: 0.995
17,GCUUACCUCCCAACUAUCATT against Dkk3,inactive: 0.296
18,CCCUGGUGACUACGAGAAUTT against Chrna4,inactive: -0.462
19,GCCUAGACCAGAGAAAGGUTT against Cep170b,inactive: 1.66
20,GGAUGUCAAUAGCAUGUGGTT against Adgrg6,inactive: 0.612
21,GGCUCACAAUUGCUGUGUATT against Psg23,inactive: -0.566
22,GCUAAUGGUCCAUUGAUAUTT against Btn2a2,inactive: 0.229

# Three records drawn at random from those above:
row,Sequence,z-score
17,GCUUACCUCCCAACUAUCATT against Dkk3,inactive: 0.296
2,GGGAGUUCAACUUGAUGUATT against Irf6,inactive: -1.45
18,GGAGAAUUGCUUGAAUACUTT against Supt20,inactive: 0.419

# Next part

row,Sequence,z-score
1,GGAAGUACAGAAUUUUGAATT against Sft2d2,inactive: 1.46
2,CCAAUAGGUCUGCUUGCCUTT against Oxgr1,inactive: -0.287
3,GGUGUCCAAAAAUAAGCAATT against Top2a,inactive: 0.184
4,GGAAAUUGUGAAAACUGGGTT against Copb2,inactive: -0.86
5,GAAGACUUCGUCCUAACAGTT against Ctsg,inactive: -0.195
6,GGUGGUUAUUGGUGGCAGATT against Smc2,inactive: -0.344
7,GGAGUUAUACGCAUGCCAGTT against Tmem59,inactive: 0.639
8,GGUUUUUAACCUCUCCUGGTT against Mela,inactive: -1.05
9,GGAGCUGUAUGACCAUGCCTT against Rab25,active: -2.03
10,GCUUGAACUUCCCGAGUGUTT against Krtcap3,inactive: 0.0501
11,GGUGCAGAACUAAUUCCACTT against Clca4a,inactive: 1.43
12,GCUUACCUUGACCAACCUCTT against Chrng,inactive: -0.937
13,GGAGAAAAACAUCUAAGUGTT against Smim8,inactive: 0.34
14,GCGGUCUUUACUUAGAGGGTT against Bri3,inactive: 0.223
15,GCAGCAUCCUGUUUCAUUGTT against Trmt9b,inactive: 1.74
16,GGGAAAACCACAAGACACUTT against Dppa4,inactive: -0.374
17,GGAUUUAUCAUAUUACUGCTT against Pop1,inactive: 0.653
18,GGGAACUGUUCAAAAAGACTT against Cnot11,inactive: -0.154
19,CGAUGACUGGACACAUUUGTT against Sqstm1,inactive: -1.41
